Laboratory results taken from PubChem BioAssay AID248 (DTP/NCI, 2004).
The list shows only some results of the screen, not a fair sample: it is rich in T/C values a quarter to a half above the control, in often repeated tests (any T/C) and in doses without a T/C. Further doses and runs are listed elsewhere. T/C: endpoint of the treated group in % of that of the vehicle group. Some entries give survivors of the animals treated and no T/C: the source files T/C as zero there, which appears to mark a toxic dose or a test without result, not a measured value. Some doses without a T/C left all or most animals alive at the check, yet need not have been tolerated: the source hardly ever lists a survival T/C far under the control, and the zero likely stands for such cases as well. Counts of survivors are from the toxicity check (mostly the fifth day) where no day follows; animals may have died later. Schedule codes are those of the source, read here as Q, the interval in days (D) or hours (H), X, the number of doses. Some schedules carry Z or #; the key to these is not given. For survival time, this PubChem deposit counts one and a half times the control or more as active, and values a quarter to a half above the control carry no call in these data; other NCI protocols may use other cut-offs.

System: L1210 leukemia ip in BDF1 mice, survival T/C
Assay: NCI In Vivo Anticancer Drug Screen. Data for tumor model L1210 Leukemia (intraperitoneal) in B6D2F1 (BDF1) mice
Settings: T/C endpoint: mean survival time, higher T/C = longer survival

`Cc1ccc(-c2cc3ccccc3[nH]2)cc1` was tested. Which survivor count (dose: 400.0 mg/kg/injection, schedule: Q04DX003 (ip), vehicle: Klucel (hydroxypropylcellulose) (HPC)) did it give?
Its survivor count is 3 of 6.

Which T/C (dose: 20.0 mg/kg/injection, schedule: Q04DX002 (ip), vehicle: saline) does the source give for `CC(CN)OC12CC3CC(CC(C3)C1)C2` (stereo not drawn) here?
The T/C was 139 % of control.

What about the survivor count (dose: 100.0 mg/kg/injection, schedule: Q04DX002 (ip), vehicle: saline) of the same compound?
The survivor count was 1 of 3.

What about the survivor count (dose: 200.0 mg/kg/injection, schedule: Q04DX002 (ip), vehicle: saline) of the same compound?
The survivor count was 0 of 3.

And the survivor count (dose: 400.0 mg/kg/injection, schedule: Q04DX002 (ip), vehicle: saline)?
The survivor count was 0 of 3.

`CCCCCCCCC1OCC(C)O1` (stereo not drawn) was tested. Which survivor count (dose: 55.0 mg/kg/injection, schedule: Q01DX Z (ip), vehicle: methylcellulose (MC)) did it give?
Its survivor count is 5 of 6.

What about the survivor count (dose: 82.5 mg/kg/injection, schedule: Q01DX Z (ip), vehicle: methylcellulose (MC)) of the same compound?
The survivor count was 5 of 6.

What about the survivor count (dose: 184.0 mg/kg/injection, schedule: Q01DX Z (ip), vehicle: methylcellulose (MC)) of the same compound?
The survivor count was 5 of 6.
